Taken from: PubChem BioAssay AID652272 (Drosophila RNAi Screening Center, 2013)
The deposit covers about 21,000 reagents; this is a random part of those that have a named target and a result. Of all reagents, 503 (2.4%) are marked active. 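Raw plate light values, not normalised; calls rest on replicate z-scores that were not deposited; hits include reporter decreases as well as increases.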 Reagents against one gene are numbered here. Not given: the amount of reagent, the time to read-out.

Assay: 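Finding fly genes that regulate Hedgehog signal transduction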 (primary screen)
System: Drosophila clone 8 (Cl8) cells
Reagents: long dsRNA against Drosophila genes
Measurement: 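Plate reader light from a firefly reporter under a ptc promoter fragment that responds to Hedgehog, with Renilla light as transfection reference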
Direction: firefly Hh reporter signal: higher = more ptc reporter light; Renilla reference signal: higher = more Renilla control light
Rule for the call: 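Hit when the z-score averaged over two replicates is under -2 or over +3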
Meaning of the calls: active = hit: reporter lowered or raised; inactive = not a hit

no.	target	dsRNA no.	firefly Hh reporter signal, replicate 1	firefly Hh reporter signal, replicate 2	firefly Hh reporter signal, replicate 3	Renilla reference signal, replicate 1	Renilla reference signal, replicate 2	Call
1	CG18666	1	1.15e5	69174		3522	7075	inactive
2	twy (twitchy)	1	49540	44407	72354	4889	6352	inactive
3	CG11583	1	98834	59720		5818	3584	active
4	CG42588	1	35428	52707	61496	7712	5498	inactive
5	CG34353	1	99511	1.32e5		1588	4540	inactive
6	CG34353	2	91674	1.55e5		3360	5537	inactive
7	CG34353	3	1.56e5	1.34e5		5888	3981	inactive
8	CG34353	4	1.30e5	1.24e5		4753	3746	inactive
9	snz (snazarus)	1	58908	2.67e5		1809	10008	inactive
10	GATAe	1	1.23e5	65464		5462	3217	inactive
11	Nedd4	1	91189			1408	2864	inactive
12	pod1 (pod1 coronin)	1	75108	46041		1840	1082	inactive
13	muc (midline uncoordinated)	1	1.67e5	80561		4267	7508	inactive
14	scaf (scarface)	1	94866	77685		3712	2946	inactive
15	babo (baboon)	1	71329	48915		2004	4235	inactive
16	CG7607	1	68789	51257	83176	5584	5888	inactive
17	IntS9 (Integrator 9)	1	73216	47521		2528	1652	inactive
18	CG1428	1	84045	67763		2628	6833	inactive
19	CG12795	1	1.34e5	1.02e5		2774	5979	inactive
20	GILT3 (Gamma-interferon-inducible lysosomal thiol reductase 3)	1	4.23e5	93349		22022	2550	inactive
21	NPF (neuropeptide F)	1	76668	77907		2756	2434	inactive
22	lov (jim lovell)	1	1.10e5	83129		2027	7333	inactive
23	Task7 (TWIK-related acid-sensitive K[+] channel 7)	1	57276	1.18e5		2016	2897	inactive

Entries above whose gene name begins with S or s:
target	dsRNA no.	firefly Hh reporter signal, replicate 1	firefly Hh reporter signal, replicate 2	firefly Hh reporter signal, replicate 3	Renilla reference signal, replicate 1	Renilla reference signal, replicate 2	Call
snz (snazarus)	1	58908	2.67e5		1809	10008	inactive
scaf (scarface)	1	94866	77685		3712	2946	inactive
